# Reference: patent publication US8247566B2, “Crystalline solvate of omeprazole sodium” (Lek Pharmaceuticals d.d., priority 2005, dated 2012)
# Some entries share one result that the patent states for a list of compounds. At least one compound was matched to its structure with a doubt left.
# Test: Hygroscopicity (absorption of water from air)
# Format: physicochemical
# Details: depending on the relative humidity of the air
smiles,measurement,value
"COc1ccc2[n-]c([S+]([O-])Cc3ncc(C)c(OC)c3C)nc2c1.[Na+] (stereo not shown) [omeprazole sodium form E, omeprazole sodium]",water absorbed from air,up to 7 % by weight
